Holding throughout (assay): protein microarray (ProtoArray v5.0), streptavidin-Alexa Fluor 647
Common to all, as to conditions: 3'-biotin; 20 mM Tris (pH 7.5), 5 mM MgCl2, 100 mM KCl, 0.1% Tween-20, A/T-rich and random oligonucleotide blockers; temperature not stated; high values mean tight binding

For experiment [1], the system named is GTF2I (human).
Experiment [2] concerns GTP-binding nuclear protein Ran (human).
Experiment [3] deals with GTPBP8 (human).
The target of experiment [4] is T1, GYG2 (UniProt O15488).
T1 sequence: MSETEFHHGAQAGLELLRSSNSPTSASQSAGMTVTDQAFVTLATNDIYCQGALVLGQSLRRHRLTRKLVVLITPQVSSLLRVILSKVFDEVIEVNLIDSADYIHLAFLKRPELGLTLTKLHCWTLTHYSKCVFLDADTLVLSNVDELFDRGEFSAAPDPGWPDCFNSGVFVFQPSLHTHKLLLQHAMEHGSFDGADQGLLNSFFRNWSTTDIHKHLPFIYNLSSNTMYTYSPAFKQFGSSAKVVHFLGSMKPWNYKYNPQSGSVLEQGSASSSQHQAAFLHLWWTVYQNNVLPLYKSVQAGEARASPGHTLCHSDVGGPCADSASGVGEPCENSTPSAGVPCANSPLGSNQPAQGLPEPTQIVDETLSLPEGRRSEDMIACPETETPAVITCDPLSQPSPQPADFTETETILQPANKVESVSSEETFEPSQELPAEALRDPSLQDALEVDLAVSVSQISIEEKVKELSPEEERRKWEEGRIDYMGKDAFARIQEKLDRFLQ

Experiment [5] addresses T2, GYPC (UniProt P04921).
T2 sequence: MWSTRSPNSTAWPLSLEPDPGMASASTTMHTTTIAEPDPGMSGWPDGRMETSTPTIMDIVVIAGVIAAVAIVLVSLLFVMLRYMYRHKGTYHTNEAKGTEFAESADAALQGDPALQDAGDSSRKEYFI

Experiment [6] has as its system Galectin-3 (human).
For experiment [7], the system named is Gamma-soluble NSF attachment protein (human).
The subject of experiment [8] is Ganglioside GM2 activator (human).
Experiment [9] has as its system Geranylgeranyl pyrophosphate synthetase (human).
Experiment [10] relates to Glucose-6-phosphate translocase (human).

The list shows a part of the results. For some of these results: The source does not settle which construct or isoform was used.

The source of these data is publication PMC5996148.

Consider “GGGGACAGGGGTATGGGGAGGGG [G4-3 biotinylated (CtG)]”, for which the binding signal is -0.339 z-score in [1]; -0.331 z-score in [2]; -0.32 z-score in [3]; -0.336 z-score in [4]; -0.332 z-score in [5]; -0.339 z-score in experiment [6]. For the same sequence, the binding signal is -0.316 z-score in experiment [7], -0.328 z-score in experiment [8], -0.331 z-score in experiment [9] and -0.329 z-score in experiment [10].
